Experimental data from publication PMC10781510.

Legend:
[1] = target: T1, full-length GASZ fused to the N-terminal half of YFP (mouse) (UniProt Q8VD46); assay: split reporter; bimolecular fluorescence complementation with N- and C-terminal halves of YFP fused to GASZ constructs, cotransfected into cells
T1 sequence: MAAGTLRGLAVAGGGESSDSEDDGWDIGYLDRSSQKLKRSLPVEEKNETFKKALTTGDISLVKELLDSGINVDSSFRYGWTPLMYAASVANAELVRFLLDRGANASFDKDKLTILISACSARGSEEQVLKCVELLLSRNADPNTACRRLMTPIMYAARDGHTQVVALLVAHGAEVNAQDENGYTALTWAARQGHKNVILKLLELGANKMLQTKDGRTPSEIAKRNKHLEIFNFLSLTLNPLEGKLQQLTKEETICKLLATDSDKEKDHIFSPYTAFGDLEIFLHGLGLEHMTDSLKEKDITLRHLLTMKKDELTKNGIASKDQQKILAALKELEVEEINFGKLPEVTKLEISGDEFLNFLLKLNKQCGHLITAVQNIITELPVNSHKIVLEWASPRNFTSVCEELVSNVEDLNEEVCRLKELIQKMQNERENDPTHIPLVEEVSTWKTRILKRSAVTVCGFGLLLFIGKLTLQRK

NYFP-GASZ-ΔMLS (mouse) = assay: as above

GASZ-ΔMLS fused to the C-terminal half of YFP (mouse) (domain or fragment)
binding [1]: binds

B1: CYFP-GASZ-Δ345/401 (protein, UniProt Q8VD46)
chain: MAAGTLRGLAVAGGGESSDSEDDGWDIGYLDRSSQKLKRSLPVEEKNETFKKALTTGDISLVKELLDSGINVDSSFRYGWTPLMYAASVANAELVRFLLDRGANASFDKDKLTILISACSARGSEEQVLKCVELLLSRNADPNTACRRLMTPIMYAARDGHTQVVALLVAHGAEVNAQDENGYTALTWAARQGHKNVILKLLELGANKMLQTKDGRTPSEIAKRNKHLEIFNFLSLTLNPLEGKLQQLTKEETICKLLATDSDKEKDHIFSPYTAFGDLEIFLHGLGLEHMTDSLKEKDITLRHLLTMKKDELTKNGIASKDQQKILAALKELEVEEINFGKLPCEELVSNVEDLNEEVCRLKELIQKMQNERENDPTHIPLVEEVSTWKTRILKRSAVTVCGFGLLLFIGKLTLQRK
binding (NYFP-GASZ-ΔMLS (mouse)): no binding

Results are given in words; binding and its absence hold for the method and conditions named. Binding seen in cells or lysates may run through a third protein. For some assays here: A result given as binding can be weak or reduced; the word gives no strength. Sequences can lack the tags named with a protein.
